What all share (assay): log2 fold change, soluble protein after heating vs DMSO (PISA); higher = thermal stabilisation; K562 cells, 10 uM, 30 min; active = over 0.2 and 3.5 SD of the protein, either way, in both replicates (recomputed)
Compound in assay [1]: CC(C)C1=C2N=C(C=C(N2N=C1)NCC3=CC=CC=C3)NCCCCCCN
In a few lines: (§1)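 K562 cells (2×10^6 cells/mL) were treated with 10 μM compound for 30 min, and aliquots were heated for 3 min over 48°C-58°C. Pooled aliquots were extracted in PBS with 0.5% NP-40 at 4°C, and the supernatant after 21,000xg for 90 min was measured by TMTpro 16plex LC-MS/MS with channel sums equalised. Reported thermal stability, relative to control samples and from duplicates, is a log2 fold change.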

Amino acid sequences for entries named in this document (tags omitted). A change or cut given only in a name is not applied to a line headed by its entry.
UniProt A8MT69: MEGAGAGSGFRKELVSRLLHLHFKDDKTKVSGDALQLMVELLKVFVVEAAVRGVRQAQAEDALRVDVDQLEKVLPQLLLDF
UniProt Q9UKI2, whole entry, looked up: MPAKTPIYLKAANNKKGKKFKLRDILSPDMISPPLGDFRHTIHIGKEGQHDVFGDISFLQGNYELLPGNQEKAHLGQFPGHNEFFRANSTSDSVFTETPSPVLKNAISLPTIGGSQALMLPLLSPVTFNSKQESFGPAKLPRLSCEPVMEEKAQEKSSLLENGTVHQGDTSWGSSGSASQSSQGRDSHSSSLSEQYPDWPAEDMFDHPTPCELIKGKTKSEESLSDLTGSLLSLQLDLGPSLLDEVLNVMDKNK
UniProt Q5VXU3: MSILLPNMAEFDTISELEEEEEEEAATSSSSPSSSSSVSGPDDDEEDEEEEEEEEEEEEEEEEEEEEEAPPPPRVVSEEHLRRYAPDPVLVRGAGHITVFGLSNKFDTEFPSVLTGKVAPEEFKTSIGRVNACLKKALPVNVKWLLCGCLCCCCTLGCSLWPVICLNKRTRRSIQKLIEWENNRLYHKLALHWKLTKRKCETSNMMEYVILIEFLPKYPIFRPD
UniProt Q49AH0, whole entry, looked up: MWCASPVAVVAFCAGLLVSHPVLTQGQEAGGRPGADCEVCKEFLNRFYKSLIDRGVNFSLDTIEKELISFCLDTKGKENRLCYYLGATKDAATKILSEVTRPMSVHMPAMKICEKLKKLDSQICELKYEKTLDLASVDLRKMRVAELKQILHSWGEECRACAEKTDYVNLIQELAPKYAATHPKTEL
UniProt Q7L2Z9: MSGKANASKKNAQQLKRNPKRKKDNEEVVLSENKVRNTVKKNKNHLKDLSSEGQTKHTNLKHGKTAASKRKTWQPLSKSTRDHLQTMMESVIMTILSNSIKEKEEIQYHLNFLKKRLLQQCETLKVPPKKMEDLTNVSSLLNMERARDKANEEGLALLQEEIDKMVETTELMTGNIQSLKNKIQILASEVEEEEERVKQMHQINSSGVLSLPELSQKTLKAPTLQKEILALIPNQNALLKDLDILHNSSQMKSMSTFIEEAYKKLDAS
UniProt O14519: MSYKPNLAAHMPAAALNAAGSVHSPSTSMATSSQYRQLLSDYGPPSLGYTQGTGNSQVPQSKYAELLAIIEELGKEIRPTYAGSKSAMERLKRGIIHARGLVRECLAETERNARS
UniProt Q86X02: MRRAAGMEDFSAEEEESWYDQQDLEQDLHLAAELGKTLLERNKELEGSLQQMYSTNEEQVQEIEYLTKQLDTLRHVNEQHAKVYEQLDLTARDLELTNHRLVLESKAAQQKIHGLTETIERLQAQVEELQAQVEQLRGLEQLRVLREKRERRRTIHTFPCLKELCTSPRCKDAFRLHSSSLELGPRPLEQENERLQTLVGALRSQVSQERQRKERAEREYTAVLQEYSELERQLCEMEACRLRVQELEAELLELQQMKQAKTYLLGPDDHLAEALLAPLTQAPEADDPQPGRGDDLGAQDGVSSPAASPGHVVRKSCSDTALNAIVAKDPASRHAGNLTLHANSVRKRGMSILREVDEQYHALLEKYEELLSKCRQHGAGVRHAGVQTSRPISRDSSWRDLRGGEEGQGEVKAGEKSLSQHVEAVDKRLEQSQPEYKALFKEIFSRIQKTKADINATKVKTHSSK
UniProt O14613: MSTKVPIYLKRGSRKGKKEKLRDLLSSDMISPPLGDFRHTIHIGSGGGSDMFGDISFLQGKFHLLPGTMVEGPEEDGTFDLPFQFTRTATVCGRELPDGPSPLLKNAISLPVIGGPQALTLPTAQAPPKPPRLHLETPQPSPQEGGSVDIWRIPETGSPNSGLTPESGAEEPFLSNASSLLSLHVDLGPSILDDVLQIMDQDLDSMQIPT
UniProt Q96HQ2: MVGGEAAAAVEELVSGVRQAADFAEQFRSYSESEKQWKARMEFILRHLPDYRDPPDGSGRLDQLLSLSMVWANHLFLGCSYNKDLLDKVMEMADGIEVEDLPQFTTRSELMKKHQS
UniProt Q6P2H3: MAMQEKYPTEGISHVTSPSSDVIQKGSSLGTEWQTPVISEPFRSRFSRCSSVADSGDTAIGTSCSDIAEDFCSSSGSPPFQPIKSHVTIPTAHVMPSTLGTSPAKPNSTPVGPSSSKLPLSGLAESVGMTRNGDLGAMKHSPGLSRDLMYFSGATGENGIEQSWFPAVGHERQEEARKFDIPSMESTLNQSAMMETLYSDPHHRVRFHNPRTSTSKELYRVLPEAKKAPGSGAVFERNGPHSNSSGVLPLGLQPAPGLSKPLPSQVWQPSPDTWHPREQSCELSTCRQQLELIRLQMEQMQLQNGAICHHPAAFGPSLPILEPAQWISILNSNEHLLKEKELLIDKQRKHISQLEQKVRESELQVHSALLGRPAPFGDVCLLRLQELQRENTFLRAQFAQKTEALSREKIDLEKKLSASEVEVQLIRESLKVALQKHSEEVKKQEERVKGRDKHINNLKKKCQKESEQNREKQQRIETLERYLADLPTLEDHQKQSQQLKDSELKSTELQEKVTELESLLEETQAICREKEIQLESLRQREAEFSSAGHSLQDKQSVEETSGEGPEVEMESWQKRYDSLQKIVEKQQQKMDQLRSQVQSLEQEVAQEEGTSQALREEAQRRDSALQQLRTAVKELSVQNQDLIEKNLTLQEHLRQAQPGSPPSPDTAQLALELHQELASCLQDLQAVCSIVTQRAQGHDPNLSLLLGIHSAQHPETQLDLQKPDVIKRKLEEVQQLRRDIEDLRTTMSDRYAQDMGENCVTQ
UniProt P53567: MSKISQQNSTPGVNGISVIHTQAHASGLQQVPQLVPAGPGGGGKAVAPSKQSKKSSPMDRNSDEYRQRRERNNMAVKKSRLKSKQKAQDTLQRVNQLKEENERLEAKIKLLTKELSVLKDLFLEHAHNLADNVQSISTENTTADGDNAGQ
UniProt Q6ZMG9: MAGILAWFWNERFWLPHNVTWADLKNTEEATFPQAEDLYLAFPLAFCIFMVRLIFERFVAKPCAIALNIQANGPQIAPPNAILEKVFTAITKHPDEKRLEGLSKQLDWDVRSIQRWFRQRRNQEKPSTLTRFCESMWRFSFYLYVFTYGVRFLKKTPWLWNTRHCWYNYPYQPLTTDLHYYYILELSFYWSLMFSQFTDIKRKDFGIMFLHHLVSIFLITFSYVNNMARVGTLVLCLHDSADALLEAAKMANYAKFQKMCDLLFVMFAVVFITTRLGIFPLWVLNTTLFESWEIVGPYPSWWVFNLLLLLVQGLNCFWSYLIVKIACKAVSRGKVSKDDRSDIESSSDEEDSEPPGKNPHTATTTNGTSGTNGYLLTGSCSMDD
UniProt O14646: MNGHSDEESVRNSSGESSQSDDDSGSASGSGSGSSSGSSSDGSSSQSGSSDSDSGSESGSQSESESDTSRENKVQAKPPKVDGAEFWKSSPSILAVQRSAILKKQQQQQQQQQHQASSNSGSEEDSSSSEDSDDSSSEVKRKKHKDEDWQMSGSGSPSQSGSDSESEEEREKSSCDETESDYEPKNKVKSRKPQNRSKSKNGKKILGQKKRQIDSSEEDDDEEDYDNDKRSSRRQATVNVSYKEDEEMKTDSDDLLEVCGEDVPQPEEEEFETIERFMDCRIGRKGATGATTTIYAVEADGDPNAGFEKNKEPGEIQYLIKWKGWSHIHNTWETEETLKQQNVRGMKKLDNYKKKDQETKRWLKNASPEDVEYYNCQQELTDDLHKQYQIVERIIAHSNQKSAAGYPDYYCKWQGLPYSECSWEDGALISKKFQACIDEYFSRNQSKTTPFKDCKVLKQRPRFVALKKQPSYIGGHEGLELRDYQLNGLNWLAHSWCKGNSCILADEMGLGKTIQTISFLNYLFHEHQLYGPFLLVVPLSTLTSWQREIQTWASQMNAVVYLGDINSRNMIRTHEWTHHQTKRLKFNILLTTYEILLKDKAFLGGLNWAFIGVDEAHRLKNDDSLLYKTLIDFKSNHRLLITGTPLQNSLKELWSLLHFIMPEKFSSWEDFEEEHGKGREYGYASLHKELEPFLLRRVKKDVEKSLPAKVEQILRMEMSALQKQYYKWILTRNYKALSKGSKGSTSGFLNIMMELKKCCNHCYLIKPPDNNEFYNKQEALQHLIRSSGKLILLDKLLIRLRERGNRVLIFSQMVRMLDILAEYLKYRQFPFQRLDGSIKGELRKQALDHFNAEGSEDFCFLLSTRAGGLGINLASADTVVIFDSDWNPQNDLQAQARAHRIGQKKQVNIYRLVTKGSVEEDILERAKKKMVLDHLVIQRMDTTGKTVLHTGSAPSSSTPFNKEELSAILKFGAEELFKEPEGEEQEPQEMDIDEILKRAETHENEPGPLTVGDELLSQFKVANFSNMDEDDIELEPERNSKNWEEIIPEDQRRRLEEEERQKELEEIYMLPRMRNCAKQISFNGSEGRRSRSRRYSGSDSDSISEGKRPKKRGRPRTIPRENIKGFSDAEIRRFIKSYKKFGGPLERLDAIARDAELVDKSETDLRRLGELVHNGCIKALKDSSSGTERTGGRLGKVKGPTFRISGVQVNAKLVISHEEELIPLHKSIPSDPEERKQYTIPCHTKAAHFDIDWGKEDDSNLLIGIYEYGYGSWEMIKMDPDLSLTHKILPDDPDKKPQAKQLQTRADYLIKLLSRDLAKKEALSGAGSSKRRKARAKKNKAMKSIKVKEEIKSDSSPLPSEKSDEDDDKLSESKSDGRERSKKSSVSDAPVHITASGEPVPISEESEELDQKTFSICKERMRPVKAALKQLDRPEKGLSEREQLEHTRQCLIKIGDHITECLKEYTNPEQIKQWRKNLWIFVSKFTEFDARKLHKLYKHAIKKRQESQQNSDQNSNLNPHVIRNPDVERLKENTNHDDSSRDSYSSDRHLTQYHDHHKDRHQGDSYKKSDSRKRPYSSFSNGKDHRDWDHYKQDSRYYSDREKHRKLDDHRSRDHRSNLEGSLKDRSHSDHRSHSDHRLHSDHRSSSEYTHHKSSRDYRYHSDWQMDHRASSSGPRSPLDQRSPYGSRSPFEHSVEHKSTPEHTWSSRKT
UniProt Q86XR8: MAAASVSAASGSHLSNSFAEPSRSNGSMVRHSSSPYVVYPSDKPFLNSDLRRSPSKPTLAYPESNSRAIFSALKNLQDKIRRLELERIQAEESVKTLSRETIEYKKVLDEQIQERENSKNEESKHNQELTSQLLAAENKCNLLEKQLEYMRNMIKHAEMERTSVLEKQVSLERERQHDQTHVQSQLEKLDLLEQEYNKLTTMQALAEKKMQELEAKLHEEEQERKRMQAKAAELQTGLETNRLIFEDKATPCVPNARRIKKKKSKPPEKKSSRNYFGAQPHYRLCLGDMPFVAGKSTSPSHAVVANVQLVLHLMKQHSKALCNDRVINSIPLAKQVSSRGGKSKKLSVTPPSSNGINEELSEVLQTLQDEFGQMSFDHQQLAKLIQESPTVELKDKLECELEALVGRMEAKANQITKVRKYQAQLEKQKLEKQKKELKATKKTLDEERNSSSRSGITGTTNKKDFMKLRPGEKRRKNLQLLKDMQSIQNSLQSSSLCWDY
UniProt Q9BWU1: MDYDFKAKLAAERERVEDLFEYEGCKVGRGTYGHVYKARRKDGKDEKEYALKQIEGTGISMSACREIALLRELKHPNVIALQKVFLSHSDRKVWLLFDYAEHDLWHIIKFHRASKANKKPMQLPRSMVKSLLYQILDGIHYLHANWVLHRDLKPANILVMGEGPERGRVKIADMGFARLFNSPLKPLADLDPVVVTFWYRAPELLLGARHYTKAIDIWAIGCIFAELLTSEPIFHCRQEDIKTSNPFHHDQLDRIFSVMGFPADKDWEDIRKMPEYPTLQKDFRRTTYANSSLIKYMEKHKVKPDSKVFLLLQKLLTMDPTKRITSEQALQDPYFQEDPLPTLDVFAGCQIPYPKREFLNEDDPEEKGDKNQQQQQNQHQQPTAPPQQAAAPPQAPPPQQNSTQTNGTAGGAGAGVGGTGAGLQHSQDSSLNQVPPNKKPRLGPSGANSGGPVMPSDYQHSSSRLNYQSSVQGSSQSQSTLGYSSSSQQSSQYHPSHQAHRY
UniProt Q9NSP4: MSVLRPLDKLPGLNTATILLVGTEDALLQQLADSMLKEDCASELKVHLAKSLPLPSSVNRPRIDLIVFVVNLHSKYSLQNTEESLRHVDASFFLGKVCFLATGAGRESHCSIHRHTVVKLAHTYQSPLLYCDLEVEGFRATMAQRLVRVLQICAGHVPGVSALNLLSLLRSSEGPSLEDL
UniProt Q7Z7K6: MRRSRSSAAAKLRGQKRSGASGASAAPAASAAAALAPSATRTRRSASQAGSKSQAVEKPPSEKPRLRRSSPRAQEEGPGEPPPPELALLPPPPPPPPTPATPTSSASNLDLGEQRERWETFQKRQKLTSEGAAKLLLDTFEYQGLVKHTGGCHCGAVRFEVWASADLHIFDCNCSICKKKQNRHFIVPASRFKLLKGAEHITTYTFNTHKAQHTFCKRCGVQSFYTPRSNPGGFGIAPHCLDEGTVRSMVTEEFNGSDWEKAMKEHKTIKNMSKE
UniProt Q9NRR3: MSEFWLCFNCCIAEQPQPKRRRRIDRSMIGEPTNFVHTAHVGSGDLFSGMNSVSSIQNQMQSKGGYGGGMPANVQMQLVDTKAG

Compound in assay [2]: CC(C)(O)CC(=O)NCCn1ccc2ncnc(Nc3ccc(Oc4cccc(C(F)(F)F)c4)c(Cl)c3)c21
In a few lines:
as §1

Compound in assay [3]: CC(=O)c1cnc2ccc(-c3cc(Cl)c(O)c(Cl)c3)nc2c1N[C@H]1CC[C@H](CN(C)C)CC1
In a few lines: as §1

Compound in assay [4]: CC1=C(C2=C(C=C1)C(=O)C3=CC=CC=C3N2CCCN)C
The gist of the method:
as §1

Compound in a further assay: C=CC(=O)N1CCC[C@@H](n2nc(-c3ccc(Oc4ccccc4)cc3)c3c(N)ncnc32)C1 [ibrutinib]
In a few lines: as §1

Compound in another assay: CC(C)(C)Cn1c(N)nc2ccc(-c3[nH]c(C(C)(C)C)nc3-c3ccc(F)cc3)nc21 [ralimetinib]
In a few lines:
as §1

Compound in assay [5]: CC(C)C[C@@H](C=O)NC(=O)[C@H](CC(C)C)NC(=O)[C@H](CC(C)C)NC(=O)OCc1ccccc1
The gist of the method:
as §1

Compound in assay [6]: CC1=C(C(CC(=O)N1)C2=CC=C(C=C2)C(F)(F)F)C(=O)NC3=C(C=C4C(=C3)C=NN4)F
In a few lines:
as §1

Compound in another assay: C1COCCN1CCN2C3=CC=CC=C3N=C2NC(=O)C4=CC(=CC=C4)[N+](=O)[O-] [IRAK-1-4 Inhibitor I]
In a few lines: as §1

Compound in the next assay: CC(C)N(C[C@H]1O[C@@H](n2cnc3c(N)ncnc32)[C@H](O)[C@@H]1O)[C@H]1C[C@@H](CCc2nc3cc(C(C)(C)C)ccc3[nH]2)C1 [pinometostat]
In a few lines:
as §1

The other results are listed elsewhere or left out. Residues, ends and D or L forms follow the SMILES beside them. *: point of attachment. Cbz = O=C(OCc1ccccc1)*

Turning to CENPX (UniProt A8MT69), the log2 fold change in [1] is inactive: -0.222.
On to CDC42EP3 (UniProt Q9UKI2), for which the log2 fold change in assay [2] is inactive: 0.006; in assay [1], inactive: -0.342.
For CHMP2A (UniProt M0R1T5), the log2 fold change in [3] is inactive: 0.189; in assay [4] it was inactive: 0.093.
Turning to CHIC1 (UniProt Q5VXU3), the log2 fold change was inactive: -0.152 in the assay with ibrutinib; inactive: 0.011 in assay [3]; inactive: -0.104 with ralimetinib; inactive: 0.049 in assay [2]; inactive: -0.04 in assay [1]; inactive: 0.236 in [5]. Further, the log2 fold change in [6] was inactive: -0.008; in assay [4], inactive: 0.036.
As to CFAP58 (UniProt Q5T655), the log2 fold change with ralimetinib is inactive: -0.04; in assay [5] it was inactive: -0.035.
Take CFL1 (UniProt E9PP50): the log2 fold change in assay [1] is inactive: 0.16; in assay [6] it was inactive: -0.092.
As to CFAP47 (UniProt Q6ZTR5), the log2 fold change was inactive: -0.109 in the assay with ibrutinib, inactive: 0.153 in [3] and inactive: 0.006 in assay [2].
As to CDNF (UniProt Q49AH0), the log2 fold change is inactive: 0.143 in the assay with IRAK-1-4 Inhibitor I and inactive: -0.083 with pinometostat.
In the case of CENPQ (UniProt Q7L2Z9), the log2 fold change in [2] is inactive: -0.113; in assay [1], inactive: -0.02; in [6], inactive: 0.024; in assay [4], inactive: 0.024.
Regarding CDK2AP1 (UniProt O14519), the log2 fold change was inactive: -0.286 in the assay with ibrutinib; inactive: -0.461 in [3]; inactive: 0.01 in the assay with ralimetinib; inactive: -0.009 in assay [2]; inactive: 0.163 in assay [1]; inactive: 0.073 in [5]. Further, the log2 fold change in assay [6] is inactive: 0.031.
On to CDCA8 (UniProt Q53HL2), for which the log2 fold change was inactive: 0.071 in the assay with ralimetinib and inactive: 0.246 in [5].
For the target CEP41 (UniProt Q9BYV8), the log2 fold change is inactive: 0.016 with IRAK-1-4 Inhibitor I, inactive: -0.307 in assay [1] and inactive: 0.012 with pinometostat.
Take CDR2L (UniProt Q86X02): the log2 fold change in assay [3] is inactive: -0.345; with ralimetinib it was inactive: 0.015; in [1], inactive: -0.257; in [5] it was inactive: 0.106; in assay [4], inactive: -0.005.
As for CDC42EP2 (UniProt O14613), the log2 fold change with ibrutinib is inactive: 0.158; in assay [2] it was inactive: -0.141; in assay [1] it was inactive: -0.139; in assay [4], inactive: -0.187.
As to CDKN2AIPNL (UniProt Q96HQ2), the log2 fold change in assay [6] was inactive: 0.045.
For the target CHIC2 (UniProt Q9UKJ5), the log2 fold change in the assay with ibrutinib is inactive: -0.089; in assay [3], inactive: 0; with ralimetinib, inactive: 0.071; in assay [2], inactive: -0.176; in assay [1] it was inactive: -0.119; in assay [5] it was inactive: -0.07. In addition, the log2 fold change in [6] was inactive: -0.046.
Turning to CDH5 (UniProt P33151), the results for the log2 fold change in assay [2] and in assay [1] were inactive: 0.148 and inactive: 0.2, respectively.
As for CEP85 (UniProt Q6P2H3), the log2 fold change was inactive: -0.29 with ibrutinib, inactive: 0.015 in assay [3], inactive: -0.005 with ralimetinib and inactive: 0.021 in assay [5].
With CEBPG (UniProt P53567), the log2 fold change in assay [3] is inactive: 0.026; with ralimetinib, inactive: 0.018; in assay [5], inactive: -0.092; in assay [6], inactive: -0.088.
Turning to CEBPZ (UniProt Q03701), the log2 fold change in [4] was inactive: 0.107.
On to CEFIP (UniProt Q711Q0), for which the log2 fold change with ibrutinib was inactive: -0.118; in [3], inactive: -0.294; in assay [2] it was inactive: -0.223; in assay [1], inactive: 0.038.
With CDC6 (UniProt Q99741), the log2 fold change in assay [2] is inactive: 0.436.
On the same count and under the same terms, for CDT1 (UniProt Q9H211) the value was inactive: 0.143.
As to CERS6 isoform 2 (UniProt Q6ZMG9), the log2 fold change with ibrutinib was inactive: 0.003; in assay [3], inactive: -0.055; in assay [2], inactive: -0.043; in assay [1], inactive: -0.079; in assay [6] it was inactive: -0.02; in [4], inactive: -0.015.
Turning to CHD1 (UniProt O14646), the log2 fold change in [3] is inactive: -0.115; in [2] it was inactive: -0.032.
With CDKN1C (UniProt P49918), the log2 fold change with ibrutinib was inactive: 0.026; in the assay with ralimetinib it was inactive: -0.131; in [2] it was inactive: -0.029; in assay [5] it was inactive: 0.155.
For the target CHD8 (UniProt Q9HCK8), the log2 fold change with ibrutinib was inactive: -0.095; with ralimetinib, inactive: -0.063; in [2] it was inactive: -0.037; in assay [5], inactive: 0.012.
Take CDS1 (UniProt Q92903): the results for the log2 fold change (with ibrutinib; in assay [2]; in assay [1]) were inactive: -0.078, inactive: 0.061 and inactive: -0.017, respectively.
For CDH2 (UniProt P19022), the log2 fold change was inactive: -0.055 in the assay with IRAK-1-4 Inhibitor I and inactive: -0.012 in the assay with pinometostat.
Turning to CEP57 (UniProt Q86XR8), in assay [6], the log2 fold change was inactive: 0.114.
On to CEND1 (UniProt Q8N111), for which the log2 fold change in assay [3] was inactive: -0.169; with ralimetinib it was inactive: 0.102; in assay [1], inactive: 0.051; in [5], inactive: -0.181; in [4] it was inactive: 0.17.
Consider CDK19 (UniProt Q9BWU1), for which the log2 fold change in [3] was active: 0.541; with ralimetinib it was inactive: -0.133; in assay [2] it was inactive: -0.02; in assay [1], inactive: 0.222; in [5], inactive: 0.074; in assay [4] it was inactive: 0.119.
On to CENPM (UniProt Q9NSP4), for which, in assay [1], the log2 fold change is inactive: 0.015.
For the target CENPV (UniProt Q7Z7K6), the log2 fold change with ralimetinib was inactive: 0.269; in assay [2], inactive: 0.323; in assay [5], inactive: 0.132.
For CDC42SE2 (UniProt Q9NRR3), the log2 fold change was inactive: 0.062 with ibrutinib; inactive: -0.27 in [3]; inactive: -0.106 in [2]; inactive: 0.117 in assay [1]; inactive: -0.01 in [6]; inactive: 0.248 in [4].

The values are drawn from the supplement of paper PMC10849652.
